Laboratory results taken from paper PMC6019448.
These are yes or no findings as the source states them, for the method shown. Binding can be weak; no strength is given. For some assays here: Tags and fused reporters may be left off the sequences shown. For some assays here: In cells and extracts the contact can be indirect.

Key:
[1] = target: T1, mouse RIG-I (mouse) (UniProt Q6Q899); experiment: co-IP; 293T cells transfected with equal amounts of Flag- and Myc-tagged plasmids, lysed 24 h after transfection; anti-Flag IP with protein A + G agarose overnight at 4°C, Western blot with c-Myc antibody
T1 sequence: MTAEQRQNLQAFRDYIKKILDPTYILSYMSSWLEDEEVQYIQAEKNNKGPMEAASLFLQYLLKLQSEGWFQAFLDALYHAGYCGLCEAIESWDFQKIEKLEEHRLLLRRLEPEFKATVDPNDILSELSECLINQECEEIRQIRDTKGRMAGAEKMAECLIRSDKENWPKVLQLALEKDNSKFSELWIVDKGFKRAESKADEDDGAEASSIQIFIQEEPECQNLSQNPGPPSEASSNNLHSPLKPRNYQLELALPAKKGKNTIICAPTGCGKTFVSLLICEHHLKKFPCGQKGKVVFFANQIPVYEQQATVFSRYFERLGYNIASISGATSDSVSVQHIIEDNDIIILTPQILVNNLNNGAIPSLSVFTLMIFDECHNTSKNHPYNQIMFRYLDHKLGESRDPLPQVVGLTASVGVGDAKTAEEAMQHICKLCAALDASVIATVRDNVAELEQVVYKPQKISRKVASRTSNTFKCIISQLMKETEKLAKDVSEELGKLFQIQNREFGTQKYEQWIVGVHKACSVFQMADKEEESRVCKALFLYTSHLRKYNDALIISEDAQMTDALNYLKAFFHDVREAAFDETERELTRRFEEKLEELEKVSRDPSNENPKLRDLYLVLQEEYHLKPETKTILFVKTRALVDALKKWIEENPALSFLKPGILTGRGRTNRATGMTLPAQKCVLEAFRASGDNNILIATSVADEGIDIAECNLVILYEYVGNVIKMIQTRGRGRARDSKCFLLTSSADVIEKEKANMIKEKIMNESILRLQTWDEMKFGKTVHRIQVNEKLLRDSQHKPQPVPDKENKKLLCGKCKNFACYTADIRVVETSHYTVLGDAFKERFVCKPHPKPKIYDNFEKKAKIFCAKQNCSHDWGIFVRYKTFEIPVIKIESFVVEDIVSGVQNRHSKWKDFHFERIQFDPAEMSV

[2] = target: T2, duck RIG-I (duck) (UniProt D3TI84); experiment: co-IP
T2 sequence: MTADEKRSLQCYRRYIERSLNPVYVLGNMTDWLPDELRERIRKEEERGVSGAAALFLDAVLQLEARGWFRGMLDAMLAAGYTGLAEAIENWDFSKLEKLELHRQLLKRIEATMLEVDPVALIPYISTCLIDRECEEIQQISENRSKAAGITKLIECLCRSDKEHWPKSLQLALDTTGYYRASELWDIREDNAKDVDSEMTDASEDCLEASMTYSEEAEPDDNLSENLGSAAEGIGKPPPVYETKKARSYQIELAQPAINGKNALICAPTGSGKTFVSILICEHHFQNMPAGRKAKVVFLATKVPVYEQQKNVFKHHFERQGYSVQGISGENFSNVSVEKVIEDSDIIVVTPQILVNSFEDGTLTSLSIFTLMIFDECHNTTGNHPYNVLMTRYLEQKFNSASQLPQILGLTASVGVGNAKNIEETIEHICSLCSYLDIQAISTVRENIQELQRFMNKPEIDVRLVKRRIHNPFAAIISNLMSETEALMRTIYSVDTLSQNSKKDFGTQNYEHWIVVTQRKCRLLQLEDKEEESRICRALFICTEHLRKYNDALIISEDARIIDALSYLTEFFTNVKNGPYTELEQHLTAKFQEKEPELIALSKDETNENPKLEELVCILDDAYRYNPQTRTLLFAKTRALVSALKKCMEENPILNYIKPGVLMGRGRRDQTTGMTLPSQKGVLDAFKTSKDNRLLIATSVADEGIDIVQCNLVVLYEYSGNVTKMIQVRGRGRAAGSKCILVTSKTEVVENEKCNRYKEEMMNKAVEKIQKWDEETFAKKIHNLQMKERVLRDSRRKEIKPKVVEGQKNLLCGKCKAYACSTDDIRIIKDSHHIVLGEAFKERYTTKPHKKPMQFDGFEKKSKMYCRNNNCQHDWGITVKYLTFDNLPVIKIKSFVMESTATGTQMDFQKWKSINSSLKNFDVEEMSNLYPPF

[3] = target: T3, duck RIG-I, Gal4 DNA-binding domain fusion (bait) (duck) (UniProt D3TI84); experiment: two-hybrid; full-length RIG-I as Gal4 DNA-binding domain bait (pGBKT7), OASL proteins as prey (pGADT7), S. cerevisiae AH109; selection on double-, triple- and quadruple-dropout medium
T3 sequence: T2 sequence

Row | Substance | binding [1] | binding [2] | other results
1 | mouse Oasl2-3D* lacking one UBL (domain or fragment) | binds | – | –
2 | duck OASL-3D* | – | binds | –
3 | duck OASL-3D*, two-hybrid prey | – | – | binding [3]: binds
4 | duck OASL, two-hybrid prey | – | – | binding [3]: no binding
5 | duck OASL-3D* OAS-like domain (domain or fragment) | – | binds | –
6 | mouse Oasl2-3D* OAS-like domain (domain or fragment) | binds | – | –
7 | mouse Oasl2 OAS-like domain (domain or fragment) | binds | – | –
8 | duck OASL | – | binds | –
